Laboratory results from publication PMC4944148.
Results are given in words; binding and its absence hold for the method and conditions named. In cells and extracts the contact can be indirect. Some binding calls cover weakened binding; strength is not graded here.

Sequences of proteins named here, by UniProt entry; tags and fusion partners are left off.
UniProt Q15672: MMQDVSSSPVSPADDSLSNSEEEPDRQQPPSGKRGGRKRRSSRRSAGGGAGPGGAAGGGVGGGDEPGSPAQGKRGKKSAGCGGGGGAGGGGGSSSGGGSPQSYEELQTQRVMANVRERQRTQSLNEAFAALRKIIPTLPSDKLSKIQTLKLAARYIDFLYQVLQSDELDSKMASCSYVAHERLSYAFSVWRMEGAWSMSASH
UniProt Q13263: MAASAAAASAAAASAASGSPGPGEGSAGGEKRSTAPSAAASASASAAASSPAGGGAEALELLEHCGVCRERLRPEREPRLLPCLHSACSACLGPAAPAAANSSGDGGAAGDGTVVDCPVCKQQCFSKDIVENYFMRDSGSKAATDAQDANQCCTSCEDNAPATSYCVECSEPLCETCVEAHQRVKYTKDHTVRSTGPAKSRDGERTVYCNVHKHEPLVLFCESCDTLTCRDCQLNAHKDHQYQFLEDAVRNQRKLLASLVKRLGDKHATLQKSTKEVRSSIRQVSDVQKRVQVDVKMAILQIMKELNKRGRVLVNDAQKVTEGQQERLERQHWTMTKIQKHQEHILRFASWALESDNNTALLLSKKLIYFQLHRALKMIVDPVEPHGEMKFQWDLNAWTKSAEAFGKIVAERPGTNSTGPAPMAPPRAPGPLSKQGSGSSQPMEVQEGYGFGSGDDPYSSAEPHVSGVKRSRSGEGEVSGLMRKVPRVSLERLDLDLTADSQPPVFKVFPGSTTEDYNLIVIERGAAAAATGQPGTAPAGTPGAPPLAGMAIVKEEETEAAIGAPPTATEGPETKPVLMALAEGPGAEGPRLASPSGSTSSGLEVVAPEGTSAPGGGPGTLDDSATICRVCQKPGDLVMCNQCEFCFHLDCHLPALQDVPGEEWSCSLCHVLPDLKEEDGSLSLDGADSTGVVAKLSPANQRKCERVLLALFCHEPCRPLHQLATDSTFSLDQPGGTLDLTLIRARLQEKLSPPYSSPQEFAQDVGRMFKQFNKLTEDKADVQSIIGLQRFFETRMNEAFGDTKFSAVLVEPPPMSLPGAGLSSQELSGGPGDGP

What was measured:
[1] = biological target: GST-TWIST1 fusion protein (human) (UniProt Q15672); assay: pull-down; GST-TWIST1 on glutathione-sepharose beads incubated with 35S-labeled in vitro translated TRIM28 for 2 h at 4 °C; washed five times (20 mM Tris-HCl, 150 mM NaCl, 1 mM DTT, 1 mM EDTA, 0.1% NP-40); only the target purified
[2] = biological target: Flag-tagged TWIST1 (human) (UniProt Q15672); assay: co-IP; HEK293 inducible cell line expressing Flag-tagged TWIST1 (DOX); lysis in EBC buffer (20 mM Tris-HCl pH 8.0, 125 mM NaCl, 2 mM EDTA, 0.5% NP-40); anti-Flag M2 agarose beads, 3 h at 4 °C; Western blot with TRIM28 antibody

In the case of “35S-labeled TRIM28 protein, in vitro translated (from UniProt Q13263 1-835)”, the binding [1] is reported as “binds”.
For “Tripartite motif containing 28 (TRIM28), endogenous in HEK293 cells (from UniProt Q13263 1-835)”, the binding [2] was “binds”.
